{"sequences": {"note": "Chains of the proteins cited; added tags and fusions are not shown.", "UniProt O14744, whole entry, species assumed": "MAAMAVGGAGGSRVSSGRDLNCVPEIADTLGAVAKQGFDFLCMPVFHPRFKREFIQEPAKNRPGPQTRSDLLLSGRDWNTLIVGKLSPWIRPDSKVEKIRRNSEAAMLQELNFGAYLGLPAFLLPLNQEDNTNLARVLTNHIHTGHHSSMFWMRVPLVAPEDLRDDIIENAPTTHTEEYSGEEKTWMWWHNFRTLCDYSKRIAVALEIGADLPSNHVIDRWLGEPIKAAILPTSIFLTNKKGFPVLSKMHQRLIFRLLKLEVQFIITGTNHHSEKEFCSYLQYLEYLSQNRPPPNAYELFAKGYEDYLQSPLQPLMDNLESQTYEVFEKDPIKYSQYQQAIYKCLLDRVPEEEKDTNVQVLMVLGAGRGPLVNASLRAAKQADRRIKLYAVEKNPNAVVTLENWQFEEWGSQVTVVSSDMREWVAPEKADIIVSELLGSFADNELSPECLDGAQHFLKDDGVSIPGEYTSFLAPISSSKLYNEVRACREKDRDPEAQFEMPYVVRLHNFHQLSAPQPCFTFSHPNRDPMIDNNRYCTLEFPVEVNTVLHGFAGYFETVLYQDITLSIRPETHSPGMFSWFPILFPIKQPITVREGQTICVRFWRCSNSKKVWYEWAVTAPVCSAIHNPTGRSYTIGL"}, "source": "patent US20170280720A1", "about": "“ARGININE […] INHIBITORS AND USES THEREOF” (EPIZYME, INC., priority 2014, published 2017)", "target": "PRMT5 (Homo sapiens, UniProt O14744)", "experiment": "PRMT5 IC50 (Table 2; no method described)", "format": "biochemical", "conditions": "read-out: PRMT5_ IC50", "note": "At least one compound was matched to its structure with a doubt left."}
{"smiles": "Cc1cc(C)c(CNC(=O)c2cc(-c3cccc(CN(C)CCN(C)C)c3)nc3c2cnn3C(C)C)c(=O)[nH]1", "note": "[Compound 361]", "values": [{"measurement": "IC50", "value": "≥ 50", "unit": "µM"}]}
